At least one compound was matched to its structure with a doubt left.
Tested on: isolated pig islets
Experiment: Glucose-induced insulin secretion from isolated pig islets, static incubation with pharmacological PKC/PKA activators
Assay type: cell-based
Settings: adult and neonate pig islets; 15 mM glucose; forskolin 1 μM
Description: FIG. 1 is a histogram showing the insulin secretion from adult and neonate isolated pig islets. […] Insulin secretion was measured in the incubation media and expressed as a percentage of total insulin content of each batch of islets. The numbers above the columns represent the fold increase of insulin secretion in test groups compared to 15 mM glucose alone. * p<0.05. […] Finally, insulin was quantified in recovered media and in incubated islets by radioimmuno-assay.

In the case of C=C[C@@]1(C)CC(=O)[C@]2(O)[C@@]3(C)[C@@H](O)CCC(C)(C)[C@@H]3[C@H](O)[C@H](OC(C)=O)[C@@]2(C)O1 [forskolin], the “increase of glucose-induced insulin secretion, in words, relative to PMA” value was “slightly smaller increases”.

Reference: patent US11160836B2, “Transgenic pig islets and uses thereof for treating diabetes” (priority 2014, dated 2021)
